Laboratory results from PubChem BioAssay AID493014 (National Center for Advancing Translational Sciences (NCATS), 2011).
Screen size: about 340,000 compounds; about 170 (0.05%) were called active. Inconclusive means that the source gave no clear call. Such entries were picked first, then a sample of the others. Calls come from the whole dose curve; as a rule, active = well fitted inhibition curve with a large enough effect in the signal ratio, with a control signal flat (not every such curve was filed as active); inconclusive = small, poorly fitted or top-dose-only effect, or effect the other way, or a change in a side signal; inactive = flat fitted curve, though single readings scatter; the % refers to the signal ratio. Potencies of inconclusive entries are doubtful fits and often do not repeat.
Potency is the fitted concentration of half-maximal effect.

Assay: qHTS Assay to Find Inhibitors of Chronic Active B-Cell Receptor Signaling;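 for activity change, negative = inhibition: plate controls were basal doxycycline-induced cells for no effect and cells given 10 µM MG132 for full effect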
Conditions: ABC-DLBCL IkBa-CBG/CBR reporter, luminescence ratio (green luciferase fused to IkBa over red control in TMD8 lymphoma cells), 4 h; activity change, negative = inhibition: at 46.1 µM (top of the series)
Outline: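 Compounds up to 46 uM were incubated four hours with TMD8 cells whose green CBG68 luciferase is fused to IkappaBalpha; red CBR luminescence normalised the signal, and concentration-effect curves were fitted to fusion, red and ratio data.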
In the case of `CC(C)(C)C1CCC(C(=O)Nc2ccc(N3CCOCC3)cc2N2CCOCC2)CC1` (configuration not stated), the “activity change, negative = inhibition” value is reported as inactive: 0.528%.
For `CCN(Cc1cc2ccccc2[nH]c1=O)C(=O)c1cccc([N+](=O)[O-])c1`, the “activity change, negative = inhibition” value was inactive: -0.928%.
In the case of `NC(=O)CC(NC(=O)Cc1ccc(Br)cc1)c1ccc(N2CCc3ccccc3C2)c([N+](=O)[O-])c1` (configuration not stated), the activity change, negative = inhibition is reported as inconclusive: -19.9%.
With `COCCn1c(SCC(=O)Nc2cccnc2Cl)nc2cc(Cl)ccc2c1=O` the activity change, negative = inhibition was inconclusive: 9.35%.
With `CCOC(=O)Cn1cc(/C=C(\C#N)C(=O)N2CCOCC2)c2ccccc21` the activity change, negative = inhibition was inconclusive: 11.2%.
With `COc1ccccc1CC(NC(C)=O)C(=O)NC1CCN(C(=O)NCc2ccccc2)CC1` (configuration not stated) the activity change, negative = inhibition was inconclusive: -13.1%.
With `O=C(COc1ccccc1)NC1CC(=O)N(c2ccc3c(c2)OCCO3)C1` (configuration not stated) the Potency was inconclusive: 12.6 µM [falling, single point].
For `Cc1[nH]c2ccc(C(=O)N3CCN(c4ccc(F)cc4)CC3)cc2c1C`, the activity change, negative = inhibition was inconclusive: -6.08%.
For `O=C(Nc1nc2ccc(Cl)cc2s1)c1cccc(N2C(=O)CCC2=O)c1`, the activity change, negative = inhibition was inconclusive: -19.8%.
With `CCCN(Cc1cc2cc(OC)ccc2[nH]c1=O)C(=O)c1ccncc1` the “activity change, negative = inhibition” value was inactive: -17.6%.
For `Cc1ccc(-c2ccc(NC(=O)C3C4C=CC(C4)C3C(=O)O)cc2)o1` (configuration not stated), the activity change, negative = inhibition was inconclusive: 20.6%.
With `Cn1c(=O)oc2cc(S(=O)(=O)N3CCC(C(=O)N4CCN(c5ccc(F)cc5)CC4)CC3)ccc21` the activity change, negative = inhibition was inconclusive: -3.21%.
With `Cc1cc(C)nc(-n2ncc3c2CC(c2ccccc2)CC3=O)n1` (configuration not stated) the “activity change, negative = inhibition” value was inactive: -5.17%.
In the case of `CC(=O)N(CCCN(C)C)Cc1ccccn1`, the activity change, negative = inhibition is reported as inconclusive: 5.48%.
For `CCCCN(C(=O)c1ccc2c(c1)OCO2)c1c(N)n(CC(C)C)c(=O)[nH]c1=O`, the activity change, negative = inhibition was inconclusive: 1.08%.
In the case of `O=C(CCc1ccccc1)Nc1ccc2ccccc2n1`, the Potency is reported as inconclusive: 12.6 µM [falling, partial curve].
In the case of `O=C(CSc1nc(Cc2ccccc2)nc2ccccc12)Nc1ccc2c(c1)OCCO2`, the activity change, negative = inhibition is reported as inconclusive: -3.64%.
In the case of `CCCn1c(SCC(=O)N2CCCc3ccccc32)nnc1-c1ccco1`, the activity change, negative = inhibition is reported as inconclusive: -0.19%.
With `COc1ccc(/C=N/OCC(=O)NCc2cccs2)c(OC)c1` the activity change, negative = inhibition was inconclusive: 5.22%.
For `COc1ccc(C2=NN(C(=O)CSc3ncccn3)C(c3ccc(C)cc3)C2)cc1` (configuration not stated), the activity change, negative = inhibition was inconclusive: 11.8%.
In the case of `CCCCCOc1ccc(C(=O)NCCC(=O)NCCCC(=O)OCC)cc1`, the Potency is reported as inconclusive: 11.2 µM [falling, partial curve, poor fit].
For `CN1CCN(CC(=O)Nc2ccc(OCc3ccccc3)cc2)CC1`, the activity change, negative = inhibition was inconclusive: 18.7%.
With `O=C(N/N=C\c1ccccc1F)c1ccc(-c2ccccc2)cc1` the activity change, negative = inhibition was inconclusive: -5.56%.
In the case of `Cc1cccc(NC2SC(=O)N(c3ccccc3)C2=O)c1` (configuration not stated), the Potency is reported as inconclusive: 25.9 µM [rising, single point].
With `CCc1c(C)nc2cc(-c3ccc(OC)c(OC)c3)nn2c1NCC1CC1` the Potency was inconclusive: 32.6 µM [rising, single point].
With `O=C(NCCc1cn2ccsc2n1)C1CCCCC1` the activity change, negative = inhibition was inconclusive: 10.9%.
For `CCOc1ccc(N(CC(=O)NCCSCc2ccccc2)S(=O)(=O)c2ccccc2)cc1`, the activity change, negative = inhibition was inconclusive: -0.956%.
For `CCC(C)(C)n1nnnc1C(c1ccccc1)N1CCc2ccccc2C1` (configuration not stated), the “activity change, negative = inhibition” value was inactive: 1.43%.
For `COc1ccc2[nH]c(=O)c(CN(Cc3cccs3)Cc3nnnn3C(C)(C)C)cc2c1`, the “activity change, negative = inhibition” value was inactive: -4.42%.
For `Cc1cc2ccccn2c1C(=O)c1nc(NCc2ccco2)ncc1Cl`, the activity change, negative = inhibition was inconclusive: 0.45%.
For `Cc1cccc(N2CCN(S(=O)(=O)c3cc(C(=O)Nc4ccccc4Cl)ccc3F)CC2)c1C`, the “activity change, negative = inhibition” value was inactive: -3.66%.
With `Cc1onc(-c2ccccc2)c1C(=O)Nc1nnc(N(C)Cc2ccccc2)s1` the Potency was inconclusive: 4.61 µM [falling, single point].
In the case of `CCn1ncc(Cl)c1C(=O)Nc1ccc2c(c1)CCC2`, the activity change, negative = inhibition is reported as inconclusive: 1.74%.
In the case of `CCOC(OCC)c1cn(Cc2ccc(C(=O)c3ccccc3)cc2)nn1`, the Potency is reported as inconclusive: 12.6 µM [falling, partial curve].
For `O=C(COC(=O)C1CC1)NC(=O)NCc1ccccc1`, the “activity change, negative = inhibition” value was inactive: 0.868%.
With `O=C1CC(/C=C/c2ccccc2)=Nc2ccccc2N1` the activity change, negative = inhibition was inconclusive: -17%.
With `O=C(O)CCCC(=O)N1N=C(c2ccccc2)CC1c1ccc2c(c1)OCO2` (configuration not stated) the “activity change, negative = inhibition” value was inactive: 11.9%.
With `O=C(CCc1ccccc1)C(=O)N1CCCC(C(=O)c2cccc(Cl)c2)C1` (configuration not stated) the Potency was inconclusive: 6.31 µM [falling, single point].
In the case of `CCOC(=O)Nc1ccc(S(=O)(=O)Nn2cnnc2)cc1`, the activity change, negative = inhibition is reported as inconclusive: 7.45%.
For `COc1cc(/C=C(\C#N)c2nc3ccccc3o2)ccc1O`, the Potency was inconclusive: 6.31 µM [rising, partial curve, poor fit].
In the case of `Fc1ccc(CNc2nc(-c3ccccc3)nc3ccccc23)cc1`, the “activity change, negative = inhibition” value is reported as inactive: 16.2%.
In the case of `O=C(CNc1ccccc1)N/N=C/c1ccc([N+](=O)[O-])o1`, the activity change, negative = inhibition is reported as inconclusive: -11.9%.
For `Cc1nn2c(=O)cc(COC(=O)c3c(F)cccc3Cl)nc2s1`, the Potency was inconclusive: 20.6 µM [falling, partial curve].
For `CSc1nc2c(c(=O)n1Cc1ccccc1)SC(C)C2` (configuration not stated), the activity change, negative = inhibition was inconclusive: -6.5%.
For `CC(=O)c1ccc(OCc2cc(C(=O)N(C)CCOc3ccc(C)cc3)no2)cc1`, the “activity change, negative = inhibition” value was inactive: 1.22%.
With `CCOc1ccc(NC(=O)Cn2cc(C(=O)c3ccco3)c3ccccc32)cc1` the “activity change, negative = inhibition” value was inactive: -11.4%.
In the case of `Cc1ccccc1N=C/C=C1/C=C(c2ccccc2)OC(C)(C)O1`, the Potency is reported as inconclusive: 29.1 µM [falling, partial curve].
For `Cc1cccc(CN2C(=O)N/C(=C/c3ccc(C)s3)C2=O)c1`, the Potency was inconclusive: 7.31 µM [rising, partial curve].
With `CCN(CC)S(=O)(=O)c1ccc(-c2nnc(SCC(=O)Nc3cc(OC)cc(OC)c3)o2)cc1` the Potency was inconclusive: 25.9 µM [falling, single point].
In the case of `Cc1ccc(N(Cc2cc(=O)[nH]c3ccccc23)C(=O)c2ccco2)cc1`, the activity change, negative = inhibition is reported as inconclusive: -16.3%.
For `O=C(N/N=C1\CCc2ccccc21)c1ccncc1`, the “activity change, negative = inhibition” value was inactive: -2.48%.
With `CCCOC(=O)c1c(N)sc(C(=O)OCC)c1C` the activity change, negative = inhibition was inconclusive: -7.94%.
For `CCc1ccc(OCC2c3cc(OC)c(OC)cc3CCN2C(=O)COc2ccccc2)cc1` (configuration not stated), the activity change, negative = inhibition was inconclusive: -6.5%.
With `CC(C)N1CCC(=NNC(=O)c2cccs2)CC1` the Potency was inconclusive: 22.4 µM [falling, partial curve].
In the case of `Cc1ccc(Cn2nnc3c(=O)n(CC(=O)NCc4ccccc4)cnc32)cc1`, the Potency is reported as inconclusive: 17.8 µM [falling, partial curve, poor fit].
For `Clc1ccc(-c2nc(N3CCCCC3)nc3ccccc23)cc1`, the “activity change, negative = inhibition” value was inactive: 6.97%.
For `c1ccc(Cc2nnc(-c3ccccc3)o2)cc1`, the Potency was inconclusive: 20.6 µM [falling, single point].
For `Cc1cccc(C(=O)c2c[nH]cc2-c2ccccc2)c1`, the activity change, negative = inhibition was inconclusive: 2.83%.
With `CCOC(=O)[C@H]1[C@H]2COc3ccccc3[C@@H]2N2C(=O)c3cc(C)ccc3NC(=O)[C@@]12C` the activity change, negative = inhibition was inconclusive: -0.0932%.
For `COc1cc(/C=C2\C(=N)N3N=C(S(C)(=O)=O)SC3=NC2=O)ccc1OS(=O)(=O)c1ccc(C)cc1`, the Potency was inconclusive: 0.562 µM [falling, full curve, poor fit].
In the case of `Cc1ccc(Cl)cc1NC(=O)C(Cc1ccccc1)N1C(=O)C2C3CCC(C3)C2C1=O` (configuration not stated), the “activity change, negative = inhibition” value is reported as inactive: -6.2%.
In the case of `O=C(COc1cccc2ccccc12)Nc1nc2ccccc2[nH]1`, the activity change, negative = inhibition is reported as inconclusive: -0.0098%.
For `COc1ccc(-n2nnnc2SCC(=O)NCCc2ccccc2)cc1OC`, the “activity change, negative = inhibition” value was inactive: -6.42%.
With `CCOc1cccc(=O)c2c(C)n(CC3CCCO3)c(C)c12` (configuration not stated) the activity change, negative = inhibition was inconclusive: 8.27%.
With `Cc1cc(=O)[nH]c(=S)[nH]1` the activity change, negative = inhibition was inconclusive: 3.68%.
For `O=C(Nc1cc(C(F)(F)F)ccc1N1CCOCC1)c1ccccc1`, the activity change, negative = inhibition was inconclusive: 25.8%.
For `CC(=O)N1CCc2cc(S(=O)(=O)CCC(=O)NCc3ccc(Cl)cc3)ccc21`, the activity change, negative = inhibition was inconclusive: 0.0732%.
With `CCc1ccc(NC(=O)CSC2=Nc3ccccc3C3=NC(CC(=O)NCc4ccccc4)C(=O)N23)cc1` (configuration not stated) the activity change, negative = inhibition was inconclusive: 4.58%.
For `COC(=O)CCN(c1ccccc1)S(=O)(=O)c1cc(-c2cc(C)no2)ccc1OC`, the activity change, negative = inhibition was inconclusive: -0.0243%.
With `O=S(=O)(c1ccc(Br)cc1Cl)N1CCN(CCO)CC1` the “activity change, negative = inhibition” value was inactive: 3.38%.
In the case of `CCOC(=O)C1(CCc2ccccc2)CCN(Cc2ccccn2)CC1`, the “activity change, negative = inhibition” value is reported as inactive: 0.131%.
With `CCCCCc1ccc(-c2cn(Cc3ccc(C)cc3)nn2)cc1` the activity change, negative = inhibition was inconclusive: 10.2%.
In the case of `O=Cc1cn(-c2ccc(F)cc2)c2ccccc12`, the activity change, negative = inhibition is reported as inconclusive: -0.308%.
In the case of `CCCc1cc(C(=O)Nc2nccs2)cs1`, the Potency is reported as inconclusive: 29.1 µM [falling, single point].
For `O=C(O)CN1C(=O)/C(=C/c2cccc(Cl)c2)Oc2ccccc21`, the activity change, negative = inhibition was inconclusive: 3.36%.
With `COc1ccc(CNC(=O)c2cccc3c2C(=O)N(Cc2cccnc2)C3)cc1` the Potency was inconclusive: 9.2 µM [falling, partial curve].
With `COc1ccc(NC(=O)C(=O)NCc2ccncc2)c(OC)c1` the Potency was inconclusive: 18.4 µM [falling, single point].
With `Nc1nc(-c2ccc(NC(=O)c3ccco3)cc2)cs1` the Potency was inconclusive: 31.6 µM [rising, partial curve].
For `CCCC(c1nnnn1Cc1ccc(F)cc1)N1CCN(C2CCCCC2)CC1` (configuration not stated), the activity change, negative = inhibition was inconclusive: -1.36%.
In the case of `Cn1ccc2c(OCC(=O)Nc3cc(C(F)(F)F)ccc3Cl)cccc2c1=O`, the activity change, negative = inhibition is reported as inconclusive: 13.5%.
With `COCCCNCC(O)COc1ccccc1F` (configuration not stated) the activity change, negative = inhibition was inconclusive: -3.48%.
In the case of `COc1ccc(/C=C/C(=O)Nc2ccccc2C(=O)O)cc1`, the activity change, negative = inhibition is reported as inconclusive: 354%.
